Experimental data published in article doi:10.1101/2021.12.16.472968.
Results are given in words; binding and its absence hold for the method and conditions named. Some binding calls cover weakened binding; strength is not graded here.

Chains of the proteins cited; added tags and fusions are not shown.
UniProt P09884: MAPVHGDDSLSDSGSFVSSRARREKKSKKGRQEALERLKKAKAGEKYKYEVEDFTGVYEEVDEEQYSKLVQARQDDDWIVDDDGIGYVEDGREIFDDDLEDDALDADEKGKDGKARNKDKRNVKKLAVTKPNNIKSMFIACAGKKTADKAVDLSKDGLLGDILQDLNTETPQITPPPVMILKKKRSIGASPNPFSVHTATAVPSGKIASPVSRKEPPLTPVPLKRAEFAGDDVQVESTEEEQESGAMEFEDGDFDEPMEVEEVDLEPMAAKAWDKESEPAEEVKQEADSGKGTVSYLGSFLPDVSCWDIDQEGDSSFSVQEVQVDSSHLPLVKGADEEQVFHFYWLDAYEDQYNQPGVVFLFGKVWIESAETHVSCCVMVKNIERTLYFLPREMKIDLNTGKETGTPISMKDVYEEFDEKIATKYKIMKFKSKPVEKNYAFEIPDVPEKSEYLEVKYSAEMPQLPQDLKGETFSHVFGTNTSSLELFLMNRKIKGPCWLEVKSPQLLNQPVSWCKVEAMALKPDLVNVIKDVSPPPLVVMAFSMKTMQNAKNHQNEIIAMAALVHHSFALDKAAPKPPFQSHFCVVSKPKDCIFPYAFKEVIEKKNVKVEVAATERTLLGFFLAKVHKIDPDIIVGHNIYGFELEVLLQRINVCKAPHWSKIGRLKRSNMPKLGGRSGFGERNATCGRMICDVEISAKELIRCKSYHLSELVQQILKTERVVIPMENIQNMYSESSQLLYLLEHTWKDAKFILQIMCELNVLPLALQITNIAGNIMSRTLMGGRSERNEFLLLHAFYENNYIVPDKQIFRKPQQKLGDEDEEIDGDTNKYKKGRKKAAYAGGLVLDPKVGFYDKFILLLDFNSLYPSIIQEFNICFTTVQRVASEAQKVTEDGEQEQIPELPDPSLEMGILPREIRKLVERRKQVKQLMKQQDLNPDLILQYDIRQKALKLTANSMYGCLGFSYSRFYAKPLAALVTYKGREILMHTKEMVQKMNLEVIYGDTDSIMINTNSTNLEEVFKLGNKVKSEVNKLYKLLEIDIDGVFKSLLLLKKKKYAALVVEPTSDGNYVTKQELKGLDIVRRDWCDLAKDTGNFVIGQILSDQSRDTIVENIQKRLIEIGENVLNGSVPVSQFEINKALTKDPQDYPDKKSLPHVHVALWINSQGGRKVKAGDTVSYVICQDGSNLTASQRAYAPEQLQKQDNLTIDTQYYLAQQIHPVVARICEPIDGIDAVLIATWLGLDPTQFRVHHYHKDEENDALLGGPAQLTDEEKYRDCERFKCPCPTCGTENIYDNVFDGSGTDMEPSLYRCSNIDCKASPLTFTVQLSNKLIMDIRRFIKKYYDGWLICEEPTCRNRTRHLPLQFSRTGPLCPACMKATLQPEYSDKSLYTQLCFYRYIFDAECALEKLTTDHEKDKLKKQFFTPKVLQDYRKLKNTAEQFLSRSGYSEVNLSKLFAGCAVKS

Key:
Experiment in all cases: cryo-EM structure
PRIM1 (human) = target: T1, PRIM1 (human) (UniProt P49642)
T1 sequence: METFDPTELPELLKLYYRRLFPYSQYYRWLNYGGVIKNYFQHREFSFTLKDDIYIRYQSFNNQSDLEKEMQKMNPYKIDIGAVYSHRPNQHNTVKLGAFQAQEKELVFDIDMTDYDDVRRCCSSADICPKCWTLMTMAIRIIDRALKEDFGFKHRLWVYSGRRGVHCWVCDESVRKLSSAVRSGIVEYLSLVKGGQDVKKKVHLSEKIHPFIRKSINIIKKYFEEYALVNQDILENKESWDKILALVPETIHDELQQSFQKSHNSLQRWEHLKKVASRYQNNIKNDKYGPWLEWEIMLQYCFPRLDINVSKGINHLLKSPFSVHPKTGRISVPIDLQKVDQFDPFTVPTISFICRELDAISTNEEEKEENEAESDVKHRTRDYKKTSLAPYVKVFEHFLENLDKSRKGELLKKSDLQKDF

PRIM2 (human) = target: T2, PRIM2 (human) (UniProt P49643)
T2 sequence: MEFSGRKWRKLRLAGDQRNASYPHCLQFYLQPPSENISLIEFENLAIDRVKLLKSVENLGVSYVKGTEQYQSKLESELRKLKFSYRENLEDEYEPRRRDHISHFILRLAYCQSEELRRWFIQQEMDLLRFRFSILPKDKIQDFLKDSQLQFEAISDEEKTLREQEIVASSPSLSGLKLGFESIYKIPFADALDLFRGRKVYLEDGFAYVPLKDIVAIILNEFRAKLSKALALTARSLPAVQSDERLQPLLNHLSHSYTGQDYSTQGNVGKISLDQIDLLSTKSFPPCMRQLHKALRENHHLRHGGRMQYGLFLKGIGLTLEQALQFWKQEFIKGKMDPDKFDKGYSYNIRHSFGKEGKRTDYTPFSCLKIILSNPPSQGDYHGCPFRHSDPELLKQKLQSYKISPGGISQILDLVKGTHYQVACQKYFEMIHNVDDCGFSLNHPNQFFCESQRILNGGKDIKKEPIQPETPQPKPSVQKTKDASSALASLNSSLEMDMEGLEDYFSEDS

POLA2 (human) = target: T3, POLA2 (human) (UniProt Q14181)
T3 sequence: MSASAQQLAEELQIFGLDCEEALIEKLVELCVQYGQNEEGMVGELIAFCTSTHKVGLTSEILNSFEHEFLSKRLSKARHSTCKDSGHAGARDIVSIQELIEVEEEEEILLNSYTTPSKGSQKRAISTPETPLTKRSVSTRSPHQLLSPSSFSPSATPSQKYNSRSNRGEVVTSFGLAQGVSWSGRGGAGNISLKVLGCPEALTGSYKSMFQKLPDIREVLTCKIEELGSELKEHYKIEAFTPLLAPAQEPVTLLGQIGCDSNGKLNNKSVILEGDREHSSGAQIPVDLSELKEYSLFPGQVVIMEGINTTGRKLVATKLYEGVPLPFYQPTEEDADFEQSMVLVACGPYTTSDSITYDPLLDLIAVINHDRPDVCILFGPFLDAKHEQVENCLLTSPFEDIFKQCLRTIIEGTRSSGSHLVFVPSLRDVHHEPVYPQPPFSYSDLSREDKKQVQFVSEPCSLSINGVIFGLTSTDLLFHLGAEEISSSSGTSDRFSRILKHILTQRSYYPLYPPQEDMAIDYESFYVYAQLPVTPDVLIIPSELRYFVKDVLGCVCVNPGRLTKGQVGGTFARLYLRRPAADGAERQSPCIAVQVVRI

POLA1 (human) = POLA1 (human) (UniProt P09884)
TEN1 (human) = target: T4, TEN1 (human) (UniProt Q86WV5)
T4 sequence: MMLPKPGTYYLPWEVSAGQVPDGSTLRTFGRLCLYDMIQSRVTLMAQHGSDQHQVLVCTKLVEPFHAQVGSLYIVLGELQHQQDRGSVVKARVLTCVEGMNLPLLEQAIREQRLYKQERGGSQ

CTC1 (human) = target: T5, CTC1 (human) (UniProt Q2NKJ3)
T5 sequence: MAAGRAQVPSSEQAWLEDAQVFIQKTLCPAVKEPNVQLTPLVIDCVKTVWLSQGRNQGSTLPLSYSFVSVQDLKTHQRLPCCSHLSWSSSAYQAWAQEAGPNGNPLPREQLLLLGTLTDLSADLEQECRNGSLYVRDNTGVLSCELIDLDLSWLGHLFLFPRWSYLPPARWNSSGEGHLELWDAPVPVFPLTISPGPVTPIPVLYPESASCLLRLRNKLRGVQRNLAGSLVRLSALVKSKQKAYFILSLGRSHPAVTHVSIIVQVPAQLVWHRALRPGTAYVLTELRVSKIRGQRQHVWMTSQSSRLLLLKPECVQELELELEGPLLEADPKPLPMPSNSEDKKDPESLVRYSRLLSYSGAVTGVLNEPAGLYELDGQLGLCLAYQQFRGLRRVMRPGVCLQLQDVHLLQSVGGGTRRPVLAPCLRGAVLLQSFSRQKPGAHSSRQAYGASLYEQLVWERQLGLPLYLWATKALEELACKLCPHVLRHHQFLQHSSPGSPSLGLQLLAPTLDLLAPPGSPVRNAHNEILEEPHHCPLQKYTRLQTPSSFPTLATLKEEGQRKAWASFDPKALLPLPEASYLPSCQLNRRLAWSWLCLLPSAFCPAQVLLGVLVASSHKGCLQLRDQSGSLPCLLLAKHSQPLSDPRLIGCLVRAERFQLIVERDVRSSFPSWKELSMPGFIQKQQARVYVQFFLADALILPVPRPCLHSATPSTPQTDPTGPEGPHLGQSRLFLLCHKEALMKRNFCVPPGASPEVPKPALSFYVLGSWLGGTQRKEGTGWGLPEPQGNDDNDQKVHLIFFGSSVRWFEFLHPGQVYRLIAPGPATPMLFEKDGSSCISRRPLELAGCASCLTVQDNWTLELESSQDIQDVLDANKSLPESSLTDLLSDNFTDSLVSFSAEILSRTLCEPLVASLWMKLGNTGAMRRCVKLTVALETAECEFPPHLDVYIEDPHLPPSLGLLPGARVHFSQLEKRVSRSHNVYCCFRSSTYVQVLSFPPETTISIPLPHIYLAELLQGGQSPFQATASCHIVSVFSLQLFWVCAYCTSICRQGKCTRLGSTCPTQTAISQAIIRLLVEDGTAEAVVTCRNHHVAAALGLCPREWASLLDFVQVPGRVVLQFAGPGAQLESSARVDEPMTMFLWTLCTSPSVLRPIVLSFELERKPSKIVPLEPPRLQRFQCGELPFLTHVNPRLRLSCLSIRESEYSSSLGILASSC

Measured: binding

B1: TEN1 (protein, UniProt Q86WV5 1-123)
chain: T4 sequence
binds: PRIM1 (human) | PRIM2 (human) | POLA2 (human) | POLA1 (human)

B2: STN1 (protein, UniProt Q9H668 1-368)
chain: MQPGSSRCEEETPSLLWGLDPVFLAFAKLYIRDILDMKESRQVPGVFLYNGHPIKQVDVLGTVIGVRERDAFYSYGVDDSTGVINCICWKKLNTESVSAAPSAARELSLTSQLKKLQETIEQKTKIEIGDTIRVRGSIRTYREEREIHATTYYKVDDPVWNIQIARMLELPTIYRKVYDQPFHSSALEKEEALSNPGALDLPSLTSLLSEKAKEFLMENRVQSFYQQELEMVESLLSLANQPVIHSASSDQVNFKKDTTSKAIHSIFKNAIQLLQEKGLVFQKDDGFDNLYYVTREDKDLHRKIHRIIQQDCQKPNHMEKGCHFLHILACARLSIRPGLSEAVLQQVLELLEDQSDIVSTMEHYYTAF
binds: TEN1 (human) | CTC1 (human) | PRIM1 (human) | POLA1 (human)

B3: CTC1 (protein, UniProt Q2NKJ3 1-1217)
chain: T5 sequence
binds: POLA1 (human)
